Results reported in PubChem BioAssay AID493014 (National Center for Advancing Translational Sciences (NCATS), 2011).
This is one part of the list. These are further read-outs of the screen, such as a control signal, another cell line or another target. No call is given for them. Most of these compounds were active or inconclusive in the main read-out, so they are no random draw. Words in brackets tell the shape of the fitted curve; partial curves, single points and poor fits give uncertain potencies.

Assay: qHTS Assay to Find Inhibitors of Chronic Active B-Cell Receptor Signaling
Conditions: ABC-DLBCL IkBa-CBG/CBR reporter, luminescence ratio (green luciferase fused to IkBa over red control in TMD8 lymphoma cells), 4 h
Summary of the method: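 TMD8 human ABC-DLBCL cells with doxycycline-inducible IκBα–green luciferase fusion and unfused red luciferase, in 0.5% FBS medium; compounds up to 46 uM, 4 h at 37C. Green/red luminescence ratio, filter-overlap corrected, fitted to concentration-response curves.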

[1] = measured here: CBR red luminescence, cell number
[2] = measured here: IkBa-CBG green luminescence

Structure (SMILES)	AC50 [1]	AC50 [2]
CCOC(=O)c1ccc(NS(=O)(=O)CC)cc1	3.66 µM [rising, single point]	
Cc1ccc([N+](=O)[O-])c(OCCN2CCNCC2)c1	0.092 µM [falling, full curve, poor fit]	
O=C(Nc1ccccc1)Nc1cccc(-c2cn3cccnc3n2)c1	35.5 µM [rising, single point]	
O=C(NCCc1cn2ccccc2n1)c1ccccc1F	20 µM [falling, partial curve, poor fit]	
COc1cc(CNCc2c[nH]c3ccccc23)cc(OC)c1	15.8 µM [falling, partial curve, poor fit]	
COc1cc(CCC(C)=O)ccc1OC(=O)c1c(F)cccc1Cl	2.82 µM [rising, full curve, poor fit]	
CCOc1ccc(CN(C)C(=O)c2cccc(S(=O)(=O)N3CCCC3)c2)cc1OC	29.1 µM [rising, single point]	
O=C(NCCS(=O)(=O)N1CCN(c2ccccc2)CC1)c1cccc(F)c1	14.6 µM [falling, partial curve]	
Cc1ccc2nc(SCC(=O)Nc3ccc(F)cc3F)nc(=O)n2c1	16.4 µM [falling, partial curve]	
CC(=O)Nc1ccccc1NC(=O)C/C(C)=N/NC(=O)C(=O)N1CCCCC1	1.26 µM [rising, partial curve, poor fit]	
O=C1c2cccc(OCC(=O)N3CCCc4ccccc43)c2CCN1Cc1ccccc1	20.6 µM [falling, partial curve]	
COc1ccccc1CC(=O)Nc1ccon1	0.355 µM [rising, full curve, poor fit]	
NC(=O)c1oc2ccccc2c1NC(=O)CS(=O)(=O)c1ccccc1	8.91 µM [falling, partial curve, poor fit]	
COCc1cc(N2CCOCC2)nc(SCc2ccc(Cl)cc2)n1	0.631 µM [falling, full curve, poor fit]	
CC1CCN(S(=O)(=O)c2cccc(C(=O)N3CCN(c4ccc(F)cc4)CC3)c2)CC1	35.5 µM [falling, single point]	
O=C(NCCCn1ccnc1)C(F)(F)C(F)(F)C(=O)NCCCn1ccnc1	20.6 µM [rising, partial curve, poor fit]	
CC(=O)Nc1ccc(-c2nc3c(C)cccc3[nH]2)cc1	29.1 µM [falling, single point]	
COc1c(O)cc(O)c2c(=O)cc(-c3ccccc3)oc12	9.2 µM [falling, partial curve, poor fit]	
CCn1c2ccccc2c2cc(/C=N/NC(=O)c3cccc(C)c3)ccc21	0.794 µM [falling, full curve, poor fit]	
Cc1ccc(CNC(=O)c2ccc3c(=O)n(CCCN4CCCC4=O)c(=S)[nH]c3c2)cc1	0.517 µM [rising, full curve, poor fit]	
COc1ccc2cc3c(N)nn(C(=O)c4ccccc4[N+](=O)[O-])c3nc2c1	2.59 µM [falling, partial curve]	

Single records, as listed above.
CCn1c2ccccc2c2cc(/C=N/NC(=O)c3cccc(C)c3)ccc21 as listed: AC50 [1]: 0.794 µM [falling, full curve, poor fit]
O=C(Nc1ccccc1)Nc1cccc(-c2cn3cccnc3n2)c1 as listed: AC50 [1]: 35.5 µM [rising, single point]
O=C(NCCc1cn2ccccc2n1)c1ccccc1F as listed: AC50 [1]: 20 µM [falling, partial curve, poor fit]

Remaining list, next part:

Structure (SMILES)	AC50 [1]	AC50 [2]
O=C(O)c1ccc2c(c1)OCCO2	0.411 µM [rising, partial curve, poor fit]	
Cc1nnc(SCCN2CCOCC2)n1-c1cccc(Cl)c1	6.51 µM [rising, single point]	
N#C/C(=C\c1cccnc1)C(=O)Nc1cccc(Cl)c1	35.5 µM [falling, single point]	
COc1ccccc1CNS(=O)(=O)CC12CCC(CC1=O)C2(C)C (stereo not given)	35.5 µM [rising, single point]	
Cc1cccc(NC(=O)N2C3CCCC2CC(NC(=O)C(C)(C)C)C3)c1 (stereo not given)	14.1 µM [rising, single point]	
S=c1[nH]c2ccc(Cl)cc2s1	11.2 µM [rising, single point]	17.8 µM [falling, partial curve, poor fit]
Cc1cc(C)c(C(=O)N2CCCC(N3CCN(c4cccc(C(F)(F)F)c4)CC3)C2)o1 (stereo not given)	20 µM [falling, partial curve, poor fit]	
C=CCn1c(-c2ccc(Cl)cc2)cnc1SC(C)C(=O)NC(N)=O (stereo not given)	11.2 µM [falling, partial curve]	
Cc1ccnc(NC(=O)CSc2ccccn2)c1	14.1 µM [falling, single point]	
CCOc1ccccc1Nc1cc(C)nc2nc(C)nn12	8.2 µM [rising, partial curve, poor fit]	
CN1CCC(N(C)CC(O)c2ccccc2)CC1 (stereo not given)	15.8 µM [falling, partial curve, poor fit]	
Nc1ncnc2c1ncn2[C@@H]1O[C@H](CNC(=O)[C@@H](N)Cc2ccc(C(F)(F)F)cc2)[C@@H](O)[C@H]1O	0.92 µM [rising, full curve, poor fit]	
Cc1nn(C)c(Cl)c1CN1CCN(C2CCCC2)C(CCO)C1 (stereo not given)	35.5 µM [falling, single point]	
Cc1cccc(C2=NC(C(F)(F)F)(C(F)(F)F)c3c(n(-c4ccc(F)cc4)c(=O)[nH]c3=O)N2)c1	23.1 µM [rising, partial curve, poor fit]	
Cc1ccccc1OCCNC(=O)CSc1ccc(C(F)(F)F)cc1[N+](=O)[O-]	18.4 µM [falling, single point]	
Cc1cc(NC(=O)COC(=O)C(Nc2ccc(C(F)(F)F)cc2Cl)C(C)C)no1 (stereo not given)	20.6 µM [falling, single point]	
CCOc1ccc2[nH]cc(S(=O)(=O)c3ccc(F)cc3)c(=O)c2c1	6.51 µM [falling, single point]	
CC(=O)Oc1c(C)c2c3c(c1OC(C)=O)[C@@H](C)CC[C@@H]3[C@@H](C)C[C@H]2C=C(C)C		11.6 µM [rising, partial curve, poor fit]
CC(=O)Oc1ccc2c(c1)cc(C)n2C	1.16 µM [falling, partial curve, poor fit]	
O=C1c2ccccc2C(=O)N1CCOCCN1C(=O)c2ccccc2C1=O	14.1 µM [rising, partial curve, poor fit]	
CCOc1ccc(S(=O)(=O)NCCC(=O)NCc2ccc(OC)c(OC)c2)cc1	3.66 µM [rising, partial curve, poor fit]	

Structure (SMILES)	AC50 [1]	AC50 [2]
Cc1ccc(OCc2n[nH]c(=S)n2-c2ccc(C)cc2)cc1	2.82 µM [rising, partial curve, poor fit]	
Cc1ccc(NC(=S)N(Cc2cccs2)Cc2cc3cccc(C)c3[nH]c2=O)cc1	1.46 µM [rising, full curve, poor fit]	
O=C(NNC(=O)c1ccccc1O)c1ccc(Cl)c(S(=O)(=O)N2CCCCC2)c1	25.9 µM [falling, single point]	
CCn1cnc2c(NCCc3cccnc3)nc(C#N)nc21	5.17 µM [falling, single point]	
CCOCCn1c(N2CCN(c3ccccc3)CC2)nc2c1c(=O)n(C)c(=O)n2C	0.13 µM [falling, full curve, poor fit]	
COc1ccc(N2CCN(C(=O)CSc3nnc4c(C)cc5ccc(C)c(C)c5n34)CC2)cc1	4.11 µM [rising, single point]	
O=S(=O)(Cc1ccccc1)N1CCN(Cc2ccc(Br)cc2)CC1	8.91 µM [falling, partial curve, poor fit]	
O=C(N/N=C/c1ccc(O)cc1)/C(=C/c1ccc([N+](=O)[O-])cc1)NC(=O)c1ccccc1	14.6 µM [falling, single point]	
Nc1cccc(/C=C/c2ccncc2)c1	17.8 µM [falling, partial curve, poor fit]	
Cc1cc(Cl)ccc1OCC(=O)N(Cc1ccco1)C1CCS(=O)(=O)C1 (stereo not given)	12.6 µM [falling, single point]	
Cc1cc(=O)[nH]c(SCC(=O)c2ccc(F)c(C)c2)n1	11.2 µM [falling, partial curve, poor fit]	
O=C(Nc1ncc([N+](=O)[O-])s1)c1ccc2c(c1)OCO2	0.0891 µM [falling, full curve, poor fit]	
Cc1nc(SCc2cccc(Oc3ccccc3)c2)n[nH]1	8.91 µM [rising, partial curve, poor fit]	
N=c1c2c(-c3ccccc3)c(-c3ccccc3)n(Cc3ccccc3)c2ncn1CCCO	8.91 µM [falling, partial curve, poor fit]	
CCC1(C)Cc2ccccc2-c2nc(NCCCO)[nH]c(=O)c21 (stereo not given)	35.5 µM [falling, single point]	
Cc1cccc(-c2noc(-c3ccc(F)cc3)n2)c1	32.6 µM [falling, single point]	
Cc1cccc(NC(=O)CS(=O)CC(=O)Nc2cnc3ccccc3c2)c1C (stereo not given)	8.91 µM [falling, partial curve, poor fit]	
Cc1cc(C)n2nc(C(=O)NCc3cccc(C(F)(F)F)c3)nc2n1	35.5 µM [rising, single point]	
NS(=O)(=O)c1cccc(Nc2nc3ccccc3nc2NS(=O)(=O)c2ccc(Cl)cc2)c1	23.1 µM [rising, single point]	
CCOC(=O)CC(=O)CSc1nc2ccsc2c(=O)n1Cc1ccccc1	11.2 µM [falling, partial curve, poor fit]	25.1 µM [rising, partial curve, poor fit]
Cc1nc2ccccc2c2oc(C(=O)N3CCCC(C)C3)cc12 (stereo not given)	35.5 µM [falling, single point]	
